Data as given in publication PMC11374303.
Like-named read-outs stand apart in the source and are kept apart here. No constants are given. Whether binding was seen depends on the method and setting. Binding seen in cells or lysates may run through a third protein. A yes stands for co-enrichment or nearness to the bait. Other partners may have been found. For some assays here: No binding means not detected with the bait. For some assays here: Where a sequence is shown, tags or fusion partners need not be part of it.

Chains of the proteins cited; added tags and fusions are not shown. Residues count along the entry.
UniProt Q53EQ6: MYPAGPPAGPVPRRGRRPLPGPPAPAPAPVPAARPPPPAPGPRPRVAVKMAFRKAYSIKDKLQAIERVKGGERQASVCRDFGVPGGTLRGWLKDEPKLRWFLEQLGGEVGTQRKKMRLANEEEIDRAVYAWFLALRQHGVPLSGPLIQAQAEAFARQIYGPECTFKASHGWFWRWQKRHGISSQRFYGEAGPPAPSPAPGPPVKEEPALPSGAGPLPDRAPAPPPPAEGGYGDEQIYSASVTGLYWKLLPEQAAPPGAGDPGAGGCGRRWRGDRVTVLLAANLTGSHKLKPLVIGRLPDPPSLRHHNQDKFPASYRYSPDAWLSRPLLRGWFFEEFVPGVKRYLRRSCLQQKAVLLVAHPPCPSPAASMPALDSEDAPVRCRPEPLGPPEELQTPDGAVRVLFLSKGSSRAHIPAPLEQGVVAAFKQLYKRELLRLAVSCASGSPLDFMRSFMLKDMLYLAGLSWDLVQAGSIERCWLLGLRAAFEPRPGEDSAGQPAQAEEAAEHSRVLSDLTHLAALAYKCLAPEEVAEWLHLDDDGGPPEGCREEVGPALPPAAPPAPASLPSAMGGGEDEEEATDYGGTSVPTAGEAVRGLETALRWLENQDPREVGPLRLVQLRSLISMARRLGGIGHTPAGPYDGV
UniProt P01106: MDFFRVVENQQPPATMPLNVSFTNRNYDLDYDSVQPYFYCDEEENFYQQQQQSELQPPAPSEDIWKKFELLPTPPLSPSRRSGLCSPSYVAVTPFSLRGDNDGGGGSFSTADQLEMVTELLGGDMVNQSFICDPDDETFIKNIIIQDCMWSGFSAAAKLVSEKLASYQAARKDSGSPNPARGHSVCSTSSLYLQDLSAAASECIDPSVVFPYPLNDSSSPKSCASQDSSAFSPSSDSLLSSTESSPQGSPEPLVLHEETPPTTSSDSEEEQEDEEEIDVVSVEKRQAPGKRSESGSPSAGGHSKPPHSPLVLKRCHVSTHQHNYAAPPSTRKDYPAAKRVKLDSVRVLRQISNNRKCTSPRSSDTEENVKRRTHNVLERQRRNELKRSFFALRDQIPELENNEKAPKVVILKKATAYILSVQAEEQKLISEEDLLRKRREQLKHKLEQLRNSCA
UniProt Q9WVA4: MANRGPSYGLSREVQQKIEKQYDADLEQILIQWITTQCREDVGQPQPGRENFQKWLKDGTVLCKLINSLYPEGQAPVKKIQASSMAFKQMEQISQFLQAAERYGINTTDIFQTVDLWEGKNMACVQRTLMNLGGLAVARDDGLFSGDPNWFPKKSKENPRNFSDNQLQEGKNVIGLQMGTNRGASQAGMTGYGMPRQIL
UniProt Q99832: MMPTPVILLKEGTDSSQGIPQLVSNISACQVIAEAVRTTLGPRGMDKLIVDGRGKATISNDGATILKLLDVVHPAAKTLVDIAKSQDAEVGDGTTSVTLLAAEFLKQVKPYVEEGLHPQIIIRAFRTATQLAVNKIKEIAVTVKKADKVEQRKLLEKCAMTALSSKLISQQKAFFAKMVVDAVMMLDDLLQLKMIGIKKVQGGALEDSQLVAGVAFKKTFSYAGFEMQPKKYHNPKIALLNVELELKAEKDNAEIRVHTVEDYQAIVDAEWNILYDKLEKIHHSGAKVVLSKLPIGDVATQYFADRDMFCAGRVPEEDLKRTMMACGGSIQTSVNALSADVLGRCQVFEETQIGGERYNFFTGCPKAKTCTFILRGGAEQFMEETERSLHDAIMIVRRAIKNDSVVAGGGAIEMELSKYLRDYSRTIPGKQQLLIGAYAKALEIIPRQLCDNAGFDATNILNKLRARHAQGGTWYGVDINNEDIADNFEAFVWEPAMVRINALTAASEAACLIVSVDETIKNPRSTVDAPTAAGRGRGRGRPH
UniProt Q9BXM7, residues 78-581: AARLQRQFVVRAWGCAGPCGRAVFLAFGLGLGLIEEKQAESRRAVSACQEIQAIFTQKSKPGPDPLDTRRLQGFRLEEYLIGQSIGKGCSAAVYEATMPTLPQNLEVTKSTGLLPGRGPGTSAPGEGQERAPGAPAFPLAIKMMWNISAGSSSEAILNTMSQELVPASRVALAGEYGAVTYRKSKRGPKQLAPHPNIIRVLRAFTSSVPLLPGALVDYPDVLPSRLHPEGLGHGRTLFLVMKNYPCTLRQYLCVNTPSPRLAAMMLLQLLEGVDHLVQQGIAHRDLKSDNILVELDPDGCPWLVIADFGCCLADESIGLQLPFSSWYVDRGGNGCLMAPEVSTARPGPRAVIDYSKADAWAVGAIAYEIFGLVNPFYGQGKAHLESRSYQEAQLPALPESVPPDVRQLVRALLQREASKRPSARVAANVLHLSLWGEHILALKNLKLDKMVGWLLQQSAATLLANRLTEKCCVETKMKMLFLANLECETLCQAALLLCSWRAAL
UniProt P48643: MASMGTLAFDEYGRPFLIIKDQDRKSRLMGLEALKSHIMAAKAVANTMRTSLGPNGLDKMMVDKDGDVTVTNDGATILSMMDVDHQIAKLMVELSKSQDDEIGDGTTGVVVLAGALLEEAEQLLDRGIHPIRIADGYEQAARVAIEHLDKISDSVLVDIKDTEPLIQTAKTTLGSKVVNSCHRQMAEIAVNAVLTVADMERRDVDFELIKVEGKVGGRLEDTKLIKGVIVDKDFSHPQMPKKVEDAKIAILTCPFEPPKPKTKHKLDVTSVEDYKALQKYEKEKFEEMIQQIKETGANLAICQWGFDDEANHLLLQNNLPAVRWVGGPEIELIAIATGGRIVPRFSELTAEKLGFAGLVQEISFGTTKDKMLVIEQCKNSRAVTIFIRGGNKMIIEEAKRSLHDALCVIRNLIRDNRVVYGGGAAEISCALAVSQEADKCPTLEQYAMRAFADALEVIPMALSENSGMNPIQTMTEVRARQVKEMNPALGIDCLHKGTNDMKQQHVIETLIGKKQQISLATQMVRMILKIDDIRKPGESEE
UniProt P37802: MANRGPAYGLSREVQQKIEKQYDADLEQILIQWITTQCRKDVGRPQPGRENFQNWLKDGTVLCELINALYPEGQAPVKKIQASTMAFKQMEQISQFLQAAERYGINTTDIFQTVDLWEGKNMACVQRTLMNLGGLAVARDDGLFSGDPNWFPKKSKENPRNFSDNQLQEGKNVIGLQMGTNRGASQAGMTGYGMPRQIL

Columns and labels:
[1] = target: PSMA4-miniTurbo-FLAG (HEK293T cell line) (human) (UniProt P25789); experiment: proximity labelling; BioID in HEK293T expressing PSMA4-miniTurbo (tetracycline 4 days, 50 µM biotin 2 hr) with 20 µM MG132 for 4 hr; streptavidin enrichment, DIA mass spectrometry; vs. miniTurbo control
[2] = target: PSMA4-miniTurbo-FLAG (HEK293T cell line) (human) (UniProt P25789); experiment: proximity labelling; BioID in HEK293T expressing PSMA4-miniTurbo (tetracycline 4 days, 50 µM biotin 2 hr), vehicle control without MG132; streptavidin enrichment, DIA mass spectrometry; vs. miniTurbo control
[3] = target: T1, PSMA4-miniTurbo with a FLAG tag (ProteasomeID mouse) (UniProt Q9R1P0); experiment: proximity labelling; in vivo BioID in ProteasomeID mice (31 days doxycycline food, 3 daily subcutaneous biotin injections); kidney, liver, heart and skeletal muscle lysates; streptavidin enrichment, DIA mass spectrometry; vs. mice not fed doxycycline
T1 sequence: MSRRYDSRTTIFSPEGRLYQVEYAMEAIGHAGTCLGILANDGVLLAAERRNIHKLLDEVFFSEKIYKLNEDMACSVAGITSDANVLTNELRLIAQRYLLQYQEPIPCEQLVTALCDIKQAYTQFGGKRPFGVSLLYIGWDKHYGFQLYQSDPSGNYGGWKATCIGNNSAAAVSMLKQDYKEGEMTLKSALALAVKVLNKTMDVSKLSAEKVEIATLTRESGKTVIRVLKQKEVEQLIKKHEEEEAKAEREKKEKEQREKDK

PSMA4-BirA*-FLAG (human) [4] = target: PSMA4-BirA*-FLAG (human) (UniProt P25789); experiment: proximity labelling; BioID in HEK293T lines expressing BirA* fusions (tetracycline 4 days, 50 µM biotin 24 hr); streptavidin enrichment from lysates, DIA mass spectrometry; enrichment vs. BirA* control, n=4
PSMA4-BirA*-FLAG (human) [5] = target: PSMA4-BirA*-FLAG (human) (UniProt P25789); experiment: as above; remark: listed apart in the source
[6] = target: PSMA4-miniTurbo-FLAG (HEK293T cell line) (human) (UniProt P25789); experiment: proximity labelling; BioID in HEK293T expressing PSMA4-miniTurbo (tetracycline 4 days, 50 µM biotin 2 hr) with 20 µM MG132 for 4 hr; streptavidin enrichment, DIA mass spectrometry; vs. miniTurbo control; remark: listed apart in the source
[7] = target: PSMA4-miniTurbo-FLAG (HEK293T cell line) (human) (UniProt P25789); experiment: proximity labelling; BioID in HEK293T expressing PSMA4-miniTurbo (tetracycline 4 days, 50 µM biotin 2 hr), vehicle control without MG132; streptavidin enrichment, DIA mass spectrometry; vs. miniTurbo control; remark: listed apart in the source

## Tigger transposable element-derived protein 5 (TIGD5) (from UniProt Q53EQ6 1-642)
[1]
  binding: binds
[2]
  binding: no binding (only vehicle control, without MG132)

## MYC (from UniProt P01106 1-454)
[1]
  binding: binds
[2]
  binding: no binding (only vehicle control, without MG132)

## transgelin 2 (TAGLN2), endogenous in mouse organs (from UniProt Q9WVA4 1-199)
[3]
  binding: binds

## CCT7 (from UniProt Q99832 1-543)
PSMA4-BirA*-FLAG (human) [4]
  binding: binds

## PINK1 (from UniProt Q9BXM7 78-581)
[1]
  binding: binds
[2]
  binding: no binding (only vehicle control, without MG132)

## CCT5 (from UniProt P48643 1-541)
PSMA4-BirA*-FLAG (human) [4]
  binding: binds

## transgelin 2 (TAGLN2), endogenous in HEK293T (from UniProt P37802 1-199)
PSMA4-BirA*-FLAG (human) [4]
  binding: binds

B1: immunoglobulin-binding protein 1 (IGBP1), endogenous in HEK293T (protein, UniProt P78318 1-339)
chain: MAAEDELQLPRLPELFETGRQLLDEVEVATEPAGSRIVQEKVFKGLDLLEKAAEMLSQLDLFSRNEDLEEIASTDLKYLLVPAFQGALTMKQVNPSKRLDHLQRAREHFINYLTQCHCYHVAEFELPKTMNNSAENHTANSSMAYPSLVAMASQRQAKIQRYKQKKELEHRLSAMKSAVESGQADDERVREYYLLHLQRWIDISLEEIESIDQEIKILRERDSSREASTSNSSRQERPPVKPFILTRNMAQAKVFGAGYPSLPTMTVSDWYEQHRKYGALPDQGIAKAAPEEFRKAAQQQEEQEEKEEEDDEQTLHRAREWDDWKDTHPRGYGNRQNMG
PSMA4-BirA*-FLAG (human) [5]
  binding: binds

B2: BRCA1-associated ATM activator 1 (BRAT1) (protein, UniProt Q6PJG6 1-821)
chain: MDPECAQLLPALCAVLVDPRQPVADDTCLEKLLDWFKTVTEGESSVVLLQEHPCLVELLSHVLKVQDLSSGVLSFSLRLAGTFAAQENCFQYLQQGELLPGLFGEPGPLGRATWAVPTVRSGWIQGLRSLAQHPSALRFLADHGAVDTIFSLQGDSSLFVASAASQLLVHVLALSMRGGAEGQPCLPGGDWPACAQKIMDHVEESLCSAATPKVTQALNVLTTTFGRCQSPWTEALWVRLSPRVACLLERDPIPAAHSFVDLLLCVARSPVFSSSDGSLWETVARALSCLGPTHMGPLALGILKLEHCPQALRTQAFQVLLQPLACVLKATVQAPGPPGLLDGTADDATTVDTLLASKSSCAGLLCRTLAHLEELQPLPQRPSPWPQASLLGATVTVLRLCDGSAAPASSVGGHLCGTLAGCVRVQRAALDFLGTLSQGTGPQELVTQALAVLLECLESPGSSPTVLKKAFQATLRWLLSSPKTPGCSDLGPLIPQFLRELFPVLQKRLCHPCWEVRDSALEFLTQLSRHWGGQADFRCALLASEVPQLALQLLQDPESYVRASAVTAMGQLSSQGLHAPTSPEHAEARQSLFLELLHILSVDSEGFPRRAVMQVFTEWLRDGHADAAQDTEQFVATVLQAASRDLDWEVRAQGLELALVFLGQTLGPPRTHCPYAVALPEVAPAQPLTEALRALCHVGLFDFAFCALFDCDRPVAQKSCDLLLFLRDKIASYSSLREARGSPNTASAEATLPRWRAGEQAQPPGDQEPEAVLAMLRSLDLEGLRSTLAESSDHVEKSPQSLLQDMLATGGFLQGDEADCY
[6]
  binding: binds
[7]
  binding: no binding (only vehicle control, without MG132)

B3: armadillo containing protein 6 (ARMC6) (protein, UniProt Q6NXE6 1-501)
chain: MSERCCSRYSSGASIGCTPTSTQAKMVSKRIAQETFDAAVRENIEEFAMGPEEAVKEAVEQFESQGVDLSNIVKTAPKVSADGSQEPTHDILQMLSDLQESVASSRPQEVSAYLTRFCDQCKQDKACRFLAAQKGAYPIIFTAWKLATAGDQGLLLQSLNALSVLTDGQPDLLDAQGLQLLVATLTQNADEADLTCSGIRCVRHACLKHEQNRQDLVKAGVLPLLTGAITHHGHHTDVVREACWALRVMTFDDDIRVPFGHAHNHAKMIVQENKGLKVLIEATKAFLDNPGILSELCGTLSRLAIRNEFCQEVVDLGGLSILVSLLADCNDHQMRDQSGVQELVKQVLSTLRAIAGNDDVKDAIVRAGGTESIVAAMTQHLTSPQVCEQSCAALCFLALRKPDNSRIIVEGGGAVAALQAMKAHPQKAGVQKQACMLIRNLVAHGQAFSKPILDLGAEALIMQARSAHRDCEDVAKAALRDLGCHVELRELWTGQRGNLAP
[6]
  binding: binds
[7]
  binding: no binding (only vehicle control, without MG132)

B4: immunoglobulin-binding protein 1 (IGBP1), endogenous in mouse organs (protein, UniProt Q61249 1-340)
chain: MAASEDELLLPRLPELFETSKKLLEDVEVATEPTGSRTIQDKVSKGLELLEKAAGMLSQLDLFSRNEDLEEIASTDLKYLMVPALQGALTMKQVNPSKRLDHLQRAREHFVHFLTQCHCYHVAEFQLPQTKTNSAENNTASSSMAYPNLVAMASQRQAKIERYKQKKEVEHRLSALKSAVESGQADDERVREYHLLHLRRWIAVSLEELESIDQEIKILKEKDSPREETACHSSLPEKPPMKPFILTRNKAQAKVFGTGYPSLATMTVSDWYEQHQKYGVLPDRGIAKPASADFQRAAQQQEDQEQKDEESEEKALHRMREWDDWKDTHPRGYGNRQNMG
[3]
  binding: binds

B5: CCT2 (protein, UniProt P78371 1-535)
chain: MASLSLAPVNIFKAGADEERAETARLTSFIGAIAIGDLVKSTLGPKGMDKILLSSGRDASLMVTNDGATILKNIGVDNPAAKVLVDMSRVQDDEVGDGTTSVTVLAAELLREAESLIAKKIHPQTIIAGWREATKAAREALLSSAVDHGSDEVKFRQDLMNIAGTTLSSKLLTHHKDHFTKLAVEAVLRLKGSGNLEAIHIIKKLGGSLADSYLDEGFLLDKKIGVNQPKRIENAKILIANTGMDTDKIKIFGSRVRVDSTAKVAEIEHAEKEKMKEKVERILKHGINCFINRQLIYNYPEQLFGAAGVMAIEHADFAGVERLALVTGGEIASTFDHPELVKLGSCKLIEEVMIGEDKLIHFSGVALGEACTIVLRGATQQILDEAERSLHDALCVLAQTVKDSRTVYGGGCSEMLMAHAVTQLANRTPGKEAVAMESYAKALRMLPTIIADNAGYDSADLVAQLRAAHSEGNTTAGLDMREGTIGDMAILGITESFQVKRQVLLSAAEAAEVILRVDNIIKAAPRKRVPDHHPC
PSMA4-BirA*-FLAG (human) [5]
  binding: binds
